Test results taken from PubChem BioAssay AID504444 (National Center for Advancing Translational Sciences (NCATS), 2011).
Out of some 360,000 compounds screened, about 7,500 (2.1%) were called active. Inconclusive results, whose numbers are uncertain, are shown with a selection of clear calls. The call rests on the fitted dose curve; in most records, active means well fitted inhibition curve with a large enough effect; inconclusive means small, poorly fitted or top-dose-only effect, or effect the other way; inactive means flat fitted curve, though single readings scatter. A potency beside an inconclusive call is a rough fit, not a confirmed value.
Potency means the concentration at half of the fitted maximal effect.

Assay: Nrf2 qHTS screen for inhibitors; further: nearly all actives have a fitted effect of over 60% in size
Settings: A549 ARE-Fluc reporter, luciferase luminescence, 18-24 h; series mostly up to 46 µM
In short: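 Concentration-response testing used A549 ARE_Fluc cells at 5000 cells/well. Following an 18-24 h compound incubation, viability was read by fluorescence (Ex 405/Em 525) and luciferase output by luminescence.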
With `COc1cc(/C=N/N=C(/C(=O)c2ccccc2)c2ccccc2)cc(OC)c1O` the Potency was “inactive”. For `O=c1c2ccccc2[nH]c(=S)n1CCCN1CCN(c2ccccc2)CC1`, the Potency was inconclusive: 23.1 µM [activator, single point]. For `O=c1cc(CO)oc(C(Nc2ccccn2)c2cccc(F)c2)c1O` (stereo not drawn), the Potency was inconclusive: 0.206 µM [falling, full curve, poor fit]. For `NNC(=O)c1cc(Br)cs1`, the Potency was inconclusive: 32.6 µM [falling, single point]. For `Cc1ccc(NC(=O)COc2ccccc2C=O)cc1Cl`, the Potency was inconclusive: 32.6 µM [activator, single point]. In the case of `CC(=NNC(=O)c1ccncc1)c1ccccc1O`, the Potency is reported as inconclusive: 5.8 µM [falling, full curve]. In the case of `CCOC(=O)N1CCC(n2c(SCC(=O)NCc3ccccc3)nc3ccccc3c2=O)CC1`, the Potency is reported as “inactive”. In the case of `Cc1ccc(C)c(N2CCN(C(=O)c3cc(S(=O)(=O)N4CCCC4)c[nH]3)CC2)c1`, the Potency is reported as “inactive”. In the case of `COc1ccc(CNc2ccccc2C(=O)NCc2ccccc2)cc1COc1ccc(NC(C)=O)cc1`, the Potency is reported as inconclusive: 5.17 µM [falling, full curve]. For `COc1ccc(S(=O)(=O)N2CCC(CN3C(=O)c4cccc5cccc(c45)C3=O)CC2)cc1`, the Potency was “inactive”. In the case of `COc1ccc(/C=C2\SC(=S)N(CC(=O)NC3CCS(=O)(=O)C3)C2=O)cc1` (stereo not drawn), the Potency is reported as inconclusive: 9.2 µM [activator, partial curve, poor fit]. For `COC(=O)c1cnc(SCC(=O)c2ccccc2)n1C`, the Potency was inconclusive: 2.59 µM [activator, full curve]. In the case of `CC1CN(C(=O)CSc2nnc(C3CCCCC3)n2N)CC(C)O1` (stereo not drawn), the Potency is reported as inconclusive: 3.26 µM [falling, single point]. With `COc1ccc(/C=N/n2cnn(Cc3ccccc3Cl)c2=S)cc1` the Potency was “inactive”. With `CN(C)S(=O)(=O)c1ccc(NC(=O)CN2CCCc3ccccc32)cc1` the Potency was inconclusive: 29.1 µM [falling, single point]. For `CN(C)C(=O)c1cn(-c2ccccc2)nc1-c1cc2ccccc2oc1=O`, the Potency was “inactive”. In the case of `O=C(c1ccccc1)c1ccc(NCCCn2ccnc2)c([N+](=O)[O-])c1`, the Potency is reported as inconclusive: 29.1 µM [falling, partial curve, poor fit]. For `CC(=O)NC(CC(=O)OCC(=O)N1CCN(S(=O)(=O)c2ccc(Cl)cc2)CC1)c1ccccc1` (stereo not drawn), the Potency was “inactive”. With `Cc1ccc2c(c1)N(CC(=O)N1CCCCCC1)C(=O)c1cccnc1O2` the Potency was inconclusive: 25.9 µM [activator, partial curve, poor fit]. With `COc1cccc(C(=O)Nc2ccc3nc(SCc4ccc(C)cc4)sc3c2)c1` the Potency was inconclusive: 29.1 µM [falling, single point]. In the case of `Cn1nc(-c2ccccc2)c(-c2ccccc2)c(C(=O)Nc2ccc(S(N)(=O)=O)cc2)c1=O`, the Potency is reported as inconclusive: 20.6 µM [activator, partial curve, poor fit]. In the case of `Cc1ccc(NC(=O)CCCNC(=O)c2ccc(Cl)cc2)cc1S(=O)(=O)N1CCOCC1`, the Potency is reported as “inactive”. In the case of `O=C(N/N=C/c1c[nH]c2ccccc12)c1cc(-c2ccc3ccccc3c2)n[nH]1`, the Potency is reported as “inactive”. With `COc1cccc(CNC(=O)c2n[nH]c3ccccc23)c1` the Potency was “inactive”. For `COc1cc(/C=N/n2cnnc2)ccc1OCC(=O)N1CCOCC1`, the Potency was inconclusive: 23.1 µM [falling, partial curve, poor fit]. In the case of `CCCC(=O)N(c1ccc(OCC)cc1)S(=O)(=O)c1ccc2c3c(cccc13)C(=O)N2C`, the Potency is reported as inconclusive: 4.11 µM [falling, full curve, poor fit]. With `COc1ccc2oc(C(=O)N(C)CCOc3ccccc3)c(C)c2c1` the Potency was inconclusive: 5.8 µM [activator, single point]. With `CCOc1ccc(Nc2c(S(=O)(=O)c3ccc(C)cc3)cnc3ccc(OC)cc23)cc1` the Potency was inconclusive: 23.1 µM [falling, single point]. In the case of `CNc1ccc(Br)cc1C(O)c1ccccc1` (stereo not drawn), the Potency is reported as “inactive”. In the case of `COc1ccc(CC(=O)N2CC(=O)Nc3ccc(Br)cc3C2c2ccc(F)cc2)cc1OC` (stereo not drawn), the Potency is reported as inconclusive: 2.91 µM [falling, partial curve, poor fit]. For `COc1ccc(N(CC(=O)Nc2cccc(N(C)S(C)(=O)=O)c2)S(=O)(=O)c2ccc(F)cc2)cc1`, the Potency was inconclusive: 13 µM [falling, partial curve, poor fit]. In the case of `CNC(=S)N(Cc1ccco1)Cc1cc2cc3c(cc2[nH]c1=O)OCCO3`, the Potency is reported as “inactive”. With `Cc1ccc(C2(CCNS(=O)(=O)c3ccc(C)cc3)CCOC(C(C)C)C2)cc1` (stereo not drawn) the Potency was inconclusive: 20.6 µM [falling, partial curve, poor fit]. With `COc1cccc(CNC(=O)c2cc(-c3cccs3)nc3ccccc23)c1` the Potency was “inactive”. For `CN=c1scc(-c2cccs2)n1/N=C/c1ccccc1O`, the Potency was inconclusive: 10.3 µM [falling, partial curve]. In the case of `CN(C[C@H](Cc1ccccc1)N(C[C@@H](CC1CCCCC1)N(CCc1ccccc1)N=O)N=O)N=O`, the Potency is reported as “inactive”. With `CCOc1ccc(-c2nnn(CC(=O)Nc3cc(OC)cc(OC)c3)n2)cc1OCC` the Potency was inconclusive: 9.2 µM [falling, partial curve]. For `CCn1c(SCC(=O)N/N=C(\C)c2ccncc2)nnc1-c1ccc(C)cc1`, the Potency was inconclusive: 14.6 µM [falling, partial curve, poor fit]. For `CCc1ccc(NC(=O)Cn2cc([N+](=O)[O-])nc2C)cc1`, the Potency was inconclusive: 29.1 µM [falling, single point]. With `CCOc1ccccc1C1C(C#N)=C(N)Nc2onc(-c3ccccc3)c21` (stereo not drawn) the Potency was inconclusive: 14.6 µM [activator, partial curve, poor fit]. With `COc1cccc(-c2nnc(-c3ccc4ccccc4c3)o2)c1` the Potency was inconclusive: 2.06 µM [activator, full curve, poor fit]. With `Cc1ccc(C)c(N2CCN(C(=O)C(C)n3nc(C)c4sc5ccccc5c4c3=O)CC2)c1` (stereo not drawn) the Potency was inconclusive: 16.4 µM [falling, single point]. For `COC(=O)/C(=C\c1cccnc1)NC(=O)c1ccc(OCc2ccccc2)cc1`, the Potency was active: 16.4 µM.
